In US20020022239A1, “PHYTOFLUORS AS FLUORESCENT LABELS” (priority 1999, published 2002):

Assay: Photochemical activity / spectral properties of PCB adducts (photoreversibility, difference spectrum)
Conditions: for Photoreveribility / Difference Spectrum: PCB adducts of site-directed mutants of Cph1 (N514)
Description: This work thus confirms that the structural motif illustrated in FIG. 2 represents the bilin-binding domain of the ‘phytochrome superfamily’ from which new phytofluors of different colors can be devised.
Based on the multiple sequence alignment shown in FIG. 2, and using methods described in W098/04700, a bacterial expression vector express a Strep-Tagged version of N-terminal 197 amino acid region of Cph2 (Cph2-N197) that encompassed ‘module 1’ only was constructed (see, FIG. 3).
To address the importance of conserved residues in the bilin lyase domain of Cph1 to bilin attachment and spectral properties of its bilin adducts, site-directed mutagenesis of some of these residues were undertaken. Charged residues D171, R172, E189 and R222 of Cph1 (N514) were mutagenized in the initial studies.

Molecule	Photoreveribility	Difference Spectrum	other results
Cph1 (N514) Wild Type: N514 deletion mutant of Synechocystis sp. PCC 6803 apophytochrome Cph1, wild-type sequence (protein, UniProt Q55168 1-514, looked up, fragment) MATTVQLSDQSLRQLETLAIHTAHLIQPHGLVVVLQEPDLTISQISANCTGILGRSPEDLLGRTLGEVFDSFQIDPIQSRLTAGQISSLNPSKLWARVMGDDFVIFDGVFHRNSDGLLVCELEPAYTSDNLPFLGFYHMANAALNRLRQQANLRDFYDVIVEEVRRMTGFDRVMLYRFDENNHGDVIAEDKRDDMEPYLGLHYPESDIPQPARRLFIHNPIRVIPDVYGVAVPLTPAVNPSTNRAVDLTESILRSAYHCHLTYLKNMGVGASLTISLIKDGHLWGLIACHHQTPKVIPFELRKACEFFGRVVFSNISAQEDTETFDYRVQLAEHEAVLLDKMTTAADFVEGLTNHPDRLLGLTGSQGAAICFGEKLILVGETPDEKAVQYLLQWLENREVQDVFFTSSLSQIYPDAVNFKSVASGLLAIPIARHNFLLWFRPEVLQTVNWGGDPNHAYEATQEDGKIELHPRQSFDLWKEIVRLQSLPWQSVEIQSALALKKAIVNLILRQAEE	yes		photochemical activity of species formed upon incubation with PCB: photochemically active
Cph1 (N514) D171A: site-directed single mutant D171A of Cph1 (N514) (protein, UniProt Q55168 1-514, looked up, variant D171A, N514 fragment) MATTVQLSDQSLRQLETLAIHTAHLIQPHGLVVVLQEPDLTISQISANCTGILGRSPEDLLGRTLGEVFDSFQIDPIQSRLTAGQISSLNPSKLWARVMGDDFVIFDGVFHRNSDGLLVCELEPAYTSDNLPFLGFYHMANAALNRLRQQANLRDFYDVIVEEVRRMTGFARVMLYRFDENNHGDVIAEDKRDDMEPYLGLHYPESDIPQPARRLFIHNPIRVIPDVYGVAVPLTPAVNPSTNRAVDLTESILRSAYHCHLTYLKNMGVGASLTISLIKDGHLWGLIACHHQTPKVIPFELRKACEFFGRVVFSNISAQEDTETFDYRVQLAEHEAVLLDKMTTAADFVEGLTNHPDRLLGLTGSQGAAICFGEKLILVGETPDEKAVQYLLQWLENREVQDVFFTSSLSQIYPDAVNFKSVASGLLAIPIARHNFLLWFRPEVLQTVNWGGDPNHAYEATQEDGKIELHPRQSFDLWKEIVRLQSLPWQSVEIQSALALKKAIVNLILRQAEE	yes		
Cph1 (N514) R222G: site-directed single mutant R222G of Cph1 (N514) (protein, UniProt Q55168 1-514, looked up, variant R222G, N514 fragment) MATTVQLSDQSLRQLETLAIHTAHLIQPHGLVVVLQEPDLTISQISANCTGILGRSPEDLLGRTLGEVFDSFQIDPIQSRLTAGQISSLNPSKLWARVMGDDFVIFDGVFHRNSDGLLVCELEPAYTSDNLPFLGFYHMANAALNRLRQQANLRDFYDVIVEEVRRMTGFDRVMLYRFDENNHGDVIAEDKRDDMEPYLGLHYPESDIPQPARRLFIHNPIGVIPDVYGVAVPLTPAVNPSTNRAVDLTESILRSAYHCHLTYLKNMGVGASLTISLIKDGHLWGLIACHHQTPKVIPFELRKACEFFGRVVFSNISAQEDTETFDYRVQLAEHEAVLLDKMTTAADFVEGLTNHPDRLLGLTGSQGAAICFGEKLILVGETPDEKAVQYLLQWLENREVQDVFFTSSLSQIYPDAVNFKSVASGLLAIPIARHNFLLWFRPEVLQTVNWGGDPNHAYEATQEDGKIELHPRQSFDLWKEIVRLQSLPWQSVEIQSALALKKAIVNLILRQAEE	yes	blue shifted	
Cph1 (N514) DR171/2AG: double mutant D171A/R172G of Cph1 (N514) (protein, UniProt Q55168 1-514, looked up, variant D171A R172G, N514 fragment) MATTVQLSDQSLRQLETLAIHTAHLIQPHGLVVVLQEPDLTISQISANCTGILGRSPEDLLGRTLGEVFDSFQIDPIQSRLTAGQISSLNPSKLWARVMGDDFVIFDGVFHRNSDGLLVCELEPAYTSDNLPFLGFYHMANAALNRLRQQANLRDFYDVIVEEVRRMTGFAGVMLYRFDENNHGDVIAEDKRDDMEPYLGLHYPESDIPQPARRLFIHNPIRVIPDVYGVAVPLTPAVNPSTNRAVDLTESILRSAYHCHLTYLKNMGVGASLTISLIKDGHLWGLIACHHQTPKVIPFELRKACEFFGRVVFSNISAQEDTETFDYRVQLAEHEAVLLDKMTTAADFVEGLTNHPDRLLGLTGSQGAAICFGEKLILVGETPDEKAVQYLLQWLENREVQDVFFTSSLSQIYPDAVNFKSVASGLLAIPIARHNFLLWFRPEVLQTVNWGGDPNHAYEATQEDGKIELHPRQSFDLWKEIVRLQSLPWQSVEIQSALALKKAIVNLILRQAEE	no	none	
Cph1 (N514) DR171/2AA: double mutant D171A/R172A of Cph1 (N514) (protein, UniProt Q55168 1-514, looked up, variant D171A R172A, N514 fragment) MATTVQLSDQSLRQLETLAIHTAHLIQPHGLVVVLQEPDLTISQISANCTGILGRSPEDLLGRTLGEVFDSFQIDPIQSRLTAGQISSLNPSKLWARVMGDDFVIFDGVFHRNSDGLLVCELEPAYTSDNLPFLGFYHMANAALNRLRQQANLRDFYDVIVEEVRRMTGFAAVMLYRFDENNHGDVIAEDKRDDMEPYLGLHYPESDIPQPARRLFIHNPIRVIPDVYGVAVPLTPAVNPSTNRAVDLTESILRSAYHCHLTYLKNMGVGASLTISLIKDGHLWGLIACHHQTPKVIPFELRKACEFFGRVVFSNISAQEDTETFDYRVQLAEHEAVLLDKMTTAADFVEGLTNHPDRLLGLTGSQGAAICFGEKLILVGETPDEKAVQYLLQWLENREVQDVFFTSSLSQIYPDAVNFKSVASGLLAIPIARHNFLLWFRPEVLQTVNWGGDPNHAYEATQEDGKIELHPRQSFDLWKEIVRLQSLPWQSVEIQSALALKKAIVNLILRQAEE	no	none	
cph2a (N390): first 390 amino acid residues of Cph2 (SLL0821), N-terminal phytochrome-related domain (protein, UniProt Q55434 1-390, looked up, fragment) MNPNRSLEDFLRNVINKFHRALTLRETLQVIVEEARIFLGVDRVKIYKFASDGSGEVLAEAVNRAALPSLLGLHFPVEDIPPQAREELGNQRKMIAVDVAHRRKKSHELSGRISPTEHSNGHYTTVDSCHIQYLLAMGVLSSLTVPVMQDQQLWGIMAVHHSKPRRFTEQEWETMALLSKEVSLAITQSQLSRQVHQQQVQEALVQRLETTVAQYGDRPETWQYALETVGQAVEADGAVLYIAPDLTGSVAQHYQWNLRFDWGNWLETSLWQELMRGQPSAAMEPMAAVQSTWEKPRPFTSVAPLPPTNCVPHGYTLGELEQRSDWIAPPESLSAENFQSFLIVPLAADQQWVGSLILLRKEKSLVKHWAGKRGIDRRNILPRLSFEAWE			photochemical activity of species formed upon incubation with PCB: photochemically active; photochemical activity of species formed upon incubation with PCB (listed as Cph2): red, far-red photoreversible
Cph2-N197: Strep-Tagged N-terminal 197 amino acid region of Cph2 (SEQ ID NO: 9), module 1 only (protein, Strep-Tag) KLAVRAISRLQSLPGGDIGALCDTVVEDVQRLTGYDRVMVYQFHEDDHGEVVSEIRRSDLEPYLGLHYPATDIPQAARFLFKQNRVRMICDCNATPVKVVQSEELKRPLCLVNSTLRAPHGCHTQYMANMGSVASLALAIVVKGKDSSKLWGLVVGHHCSPRYVPFPLRYACEFLMQAFGLQLQMELQLASQLAEK			optical properties of purified PCB adduct (purified PCB-Cph2 adduct): phytochrome-like optical properties including a red minus far-red difference spectra
